Assay results taken from doi:10.1101/844498.
No constants are given. Whether binding was seen depends on the method and setting.

How the values were obtained:
[1] = biological target: human Mcm10 internal domain (hMcm10-ID, residues 236-435), wild type (human) (UniProt Q7L590); test: SEC
[2] = biological target: human Mcm10 internal domain lacking the N-terminal 20 residues (ΔN20, amino acids 256-435) (human) (UniProt Q7L590); test: SEC

| binding [1] | binding [2] | Binder |
| --- | --- | --- |
| no binding (tested: 5 mg ml-1 injected) | – | human Mcm10 internal domain (hMcm10-ID, residues 236-435), wild type (domain or fragment, UniProt Q7L590-2 236-435) GPSSGETTQPICVEAFSGLRLRRPRVSSTEMNKKMTGRKLIRLSQIKEKMAREKLEEIDWVTFGVILKKVTPQSVNSGKTFSIWKLNDLRDLTQCVSLFLFGEVHKALWKTEQGTVVGILNANPMKPKDGSEEVCLSIDHPQKVLIMGEALDLGTCKAKKKNGEPCTQTVNLRDCEYCQYHVQAQYKKLSAKRADLQSTFSG |
| – | no binding (tested: 5 mg ml-1 injected) | human Mcm10 internal domain lacking the N-terminal 20 residues (ΔN20, amino acids 256-435) (domain or fragment, UniProt Q7L590-2 256-435) GPRPRVSSTEMNKKMTGRKLIRLSQIKEKMAREKLEEIDWVTFGVILKKVTPQSVNSGKTFSIWKLNDLRDLTQCVSLFLFGEVHKALWKTEQGTVVGILNANPMKPKDGSEEVCLSIDHPQKVLIMGEALDLGTCKAKKKNGEPCTQTVNLRDCEYCQYHVQAQYKKLSAKRADLQSTFSG |
